Numbering of substitutions follows the chain as printed. These are yes or no findings as the source states them, for the method shown. In cells and extracts the contact can be indirect. Some results given as binding are weak or reduced against the parent protein; the word gives no strength. Where a sequence is shown, tags or fusion partners need not be part of it.
Columns and labels:
Assay in all cases: co-IP
[1] = molecular target: T1, FLAG-FAM111B HFP mutant (Q430P, M1) (human) (UniProt Q6SJ93)
T1 sequence: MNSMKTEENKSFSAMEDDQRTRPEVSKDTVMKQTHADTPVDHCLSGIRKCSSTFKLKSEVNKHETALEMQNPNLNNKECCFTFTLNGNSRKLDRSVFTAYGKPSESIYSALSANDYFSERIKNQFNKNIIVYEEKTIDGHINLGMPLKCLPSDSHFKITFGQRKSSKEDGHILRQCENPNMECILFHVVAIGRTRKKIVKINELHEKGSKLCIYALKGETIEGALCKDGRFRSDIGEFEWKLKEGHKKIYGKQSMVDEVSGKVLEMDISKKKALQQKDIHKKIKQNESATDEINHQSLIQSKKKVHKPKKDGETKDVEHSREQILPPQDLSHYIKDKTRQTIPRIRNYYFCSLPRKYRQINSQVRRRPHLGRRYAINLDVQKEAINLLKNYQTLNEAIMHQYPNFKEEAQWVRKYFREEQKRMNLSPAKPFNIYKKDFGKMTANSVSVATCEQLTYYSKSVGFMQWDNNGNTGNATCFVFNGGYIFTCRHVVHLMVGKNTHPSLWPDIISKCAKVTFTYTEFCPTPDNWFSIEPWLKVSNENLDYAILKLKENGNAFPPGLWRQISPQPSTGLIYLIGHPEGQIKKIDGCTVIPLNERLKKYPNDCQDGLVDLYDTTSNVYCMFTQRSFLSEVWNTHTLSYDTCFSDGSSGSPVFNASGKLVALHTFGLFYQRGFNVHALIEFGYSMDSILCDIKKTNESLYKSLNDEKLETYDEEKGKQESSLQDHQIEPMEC

[2] = molecular target: T2, FLAG-FAM111B protease dead (PD, H490A) (human) (UniProt Q6SJ93)
T2 sequence: T1 sequence with P430Q, H490A

[3] = molecular target: T3, FLAG-FAM111B wild-type (WT) (human) (UniProt Q6SJ93)
T3 sequence: T1 sequence with P430Q

- binding [1]: binds
- binding [2]: binds
- binding [3]: binds
B1: NUPL2 (protein, UniProt O15504 1-423)
chain: MAICQFFLQGRCRFGDRCWNEHPGARGAGGGRQQPQQQPSGNNRRGWNTTSQRYSNVIQPSSFSKSTPWGGSRDQEKPYFSSFDSGASTNRKEGFGLSENPFASLSPDEQKDEKKLLEGIVKDMEVWESSGQWMFSVYSPVKKKPNISGFTDISPEELRLEYHNFLTSNNLQSYLNSVQRLINQWRNRVNELKSLNISTKVALLSDVKDGVNQAAPAFGFGSSQAATFMSPGFPVNNSSSDNAQNFSFKTNSGFAAASSGSPAGFGSSPAFGAAASTSSGISTSAPAFGFGKPEVTSAASFSFKSPAASSFGSPGFSGLPASLATGPVRAPVAPAFGGGSSVAGFGSPGSHSHTAFSKPSSDTFGNSSISTSLSASSSIIATDNVLFTPRDKLTVEELEQFQSKKFTLGKIPLKPPPLELLNV
